The target in the assay is Proteintech Recombinant PRKCG (catalog ag5910) (UniProt P05129). Nature of the assay: Multi-Antigen Print Immunoassay (MAPIA) against recombinant PRKCG.

From patent publication US20220057411A1 come the findings set out here.

Results are given in words; binding and its absence hold for the method and conditions named. Binding calls can cover weak binding; strength is not graded here.

B1: PKC11 (1H1/1K1) rabbit anti-PKCg monoclonal antibody (antibody, V domains shown)
VH: QSVEESGGRLVTPGTPLALTCTVSGFSLNYYAMNWVRQAPVKGLEWIGVITSDTTYYASWAKGRFTISKTSTTVELQITSPTTEDTATYFCASGGSTTSPALWGQGTLVTVSS
VL: AQVLTQTPSPVSAAVGSTVTINCQASQSVWSKNYLSWFQQKPGQPPKQLIYSASTLASGVPSRFSGSGSGTQFTLTISDVQCDDAATYYCLGSYDCRSADCWTFGGGTEVVVK
Regarding B1, the binding entry is “binds”.

B2: PKC14 (7H1/7K3) rabbit anti-PKCg monoclonal antibody (antibody, V domains shown)
VH: QSLEESGGDLVQPGASLTLTCTASGFTLTTYWICWVRQAPGKGLEWVACILTGSGSTYYASWVNGRFTISKTSSTTVTLQMTSLTAADTATYFCARYGGDATYNENLWGQGTLVTVSS
VL: AQVLTQTPSSVSAAVGGTVTINCQASQSVYNNNRLSWYQQKPGQPPKRLIYGVSTLYYGVSSRFKGSGSGTQFTLTISGMQCDDAAIYYCLGGYDCASADCYAFGGGTEVVVK
Consider B2, for which the binding entry is “binds”.

B3: PKC13 (5H1/5K1) rabbit anti-PKCg monoclonal antibody (antibody, V domains shown)
VH: QEQLKESGGGLVTPGGTLTLTCTVSGFSLSSYAMSWVRQAPGKGLEWIGIIISGGSAYYATWAKGRFTISKTSTTVDLSITSPTTEDTATYFCARAKSGTYTGDYFTLWGQGTLVTVSS
VL: AFELTQTPASVEAAVGGTVTIKCQASESIGNALAWYQQKPGQPPKLLIYRASTLESGVPSRFKGSGSGTEFTLTISDLECADAATYYCQSYVGSRSTGYNVFGGGTEVVVK
B3: the binding result was “binds”.
